Results deposited as PubChem BioAssay AID504774 (Drosophila RNAi Screening Center, 2011).
Aim: 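Fly genes whose loss alters survival after alkylation damage to DNA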 (primary screen). System: Drosophila Kc167 cells. Reagents: long dsRNA against Drosophila genes, about 0.25 µg dsRNA per well. Duration: about 6 days: 3 days knock-down, then 3 days with or without MMS. Treatment: methyl methanesulphonate 0.004% (w/v) for 3 days after knock-down. Measured: 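Viability in wells given MMS, read as ATP luminescence, normalised by quantiles plate by plate and averaged across replicates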. Scale: mean viability with MMS and viability with MMS: higher = more surviving cells after MMS.
The screen tested about 23,000 reagents; shown is an unselected part of those that have a named target and a result. 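Values are quantile-normalised luminescence on an arbitrary scale; higher means more cells surviving MMS.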 Not all columns of the deposit are shown.

CG18585 [DRSC02678]
- mean viability with MMS: 3.61e6
- viability with MMS, replicate 1: 3.98e6

capu (cappuccino) [DRSC00208]
- mean viability with MMS: 3.57e6
- viability with MMS, replicate 1: 4.15e6

capu (cappuccino) [DRSC00209]
- mean viability with MMS: 3.62e6
- viability with MMS, replicate 1: 4.11e6

capu (cappuccino) [DRSC00434]
- mean viability with MMS: 3.46e6
- viability with MMS, replicate 1: 3.91e6

capu (cappuccino) [DRSC00807]
- mean viability with MMS: 3.76e6
- viability with MMS, replicate 1: 4.30e6

CG7341 [DRSC10818]
- mean viability with MMS: 3.63e6
- viability with MMS, replicate 1: 4.03e6

Spc25 [DRSC14164]
- mean viability with MMS: 3.33e6
- viability with MMS, replicate 1: 3.64e6

OXA1L (OXA1L mitochondrial inner membrane protein) [DRSC09672]
- mean viability with MMS: 3.65e6
- viability with MMS, replicate 1: 4.07e6

CG31076 [DRSC16017]
- mean viability with MMS: 3.63e6
- viability with MMS, replicate 1: 4.04e6

shi (shibire) [DRSC20373]
- mean viability with MMS: 3.60e6
- viability with MMS, replicate 1: 4.22e6

hep (hemipterous) [DRSC19839]
- mean viability with MMS: 3.41e6
- viability with MMS, replicate 1: 3.90e6

hep (hemipterous) [DRSC20337]
- mean viability with MMS: 3.51e6
- viability with MMS, replicate 1: 4.05e6

Swim (Secreted Wg-interacting molecule) [DRSC04334]
- mean viability with MMS: 3.54e6
- viability with MMS, replicate 1: 4.06e6

Agps (Alkylglycerone phosphate synthase) [DRSC05984]
- mean viability with MMS: 3.36e6
- viability with MMS, replicate 1: 3.96e6
